PubChem BioAssay AID1508597 | Cure First | 2020
Shown is an unselected part of the about 2,100 reagents, under one of the conditions tested. 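Calls flag viability under 80% in either arm, not effects specific to rucaparib; the reference for percent is not stated.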 Not given: the 100% reference.

- Aim: 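Survival screen with siRNA in ovarian cancer cells derived from patients, with or without rucaparib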 (primary screen)
- System: human ovarian carcinoma lines grown from tumours: OCI-P5x (papillary serous) and OCI-C5x (clear cell)
- Knock-down reagent: siRNA pool against human genes, 1.25 pmol siRNA per well
- Time to read-out: 72 h or 96 h, depending on the cell culture
- Treatment: rucaparib 20 µM (about IC30) or vehicle, present until read-out
- Rucaparib or vehicle: Vehicle
- Cell line: OCI-C5x (clear cell)
- Detection: 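Luminescent ATP-based viability assay read 72 or 96 h after transfection, depending on culture, given as normalised percent viability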
- Reading the numbers: viability, normalised: higher = more viable cells remaining
- Hit rule: 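Active when normalised viability falls below 80 percent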
- Calls: active = viability under 80%; inactive = viability 80% or more

gene	technical replicate	viability, normalised (%)	Outcome
CSNK1A1L (GeneID 122011)	1	74.3	active
CSNK1A1L (GeneID 122011)	2	48.8	active
CSNK1A1L (GeneID 122011)	3	51.5	active
SMARCD2 (GeneID 6603)	1	28.9	active
SMARCD2 (GeneID 6603)	2	34.8	active
SMARCD2 (GeneID 6603)	3	31.5	active
CAV2 (GeneID 858)	1	33.7	active
CAV2 (GeneID 858)	2	38.4	active
CAV2 (GeneID 858)	3	41.9	active
NEK8 (GeneID 284086)	1	57	active
NEK8 (GeneID 284086)	2	40.5	active
NEK8 (GeneID 284086)	3	41.2	active
MAD1L1 (GeneID 8379)	1	31	active
MAD1L1 (GeneID 8379)	2	34	active
MAD1L1 (GeneID 8379)	3	50.2	active
STK39 (GeneID 27347)	1	48.1	active
STK39 (GeneID 27347)	2	51.4	active
STK39 (GeneID 27347)	3	33.2	active
MMS22L (GeneID 253714)	1	95.9	inactive
MMS22L (GeneID 253714)	2	58.6	active
MMS22L (GeneID 253714)	3	51	active
KALRN (GeneID 8997)	1	82.3	inactive
KALRN (GeneID 8997)	2	62.5	active
KALRN (GeneID 8997)	3	55.2	active
ALKBH3 (GeneID 221120)	1	59.6	active
ALKBH3 (GeneID 221120)	2	66.7	active
ALKBH3 (GeneID 221120)	3	56.7	active
DDX56 (GeneID 54606)	1	33.9	active
DDX56 (GeneID 54606)	2	42.9	active
DDX56 (GeneID 54606)	3	42.2	active
MKNK1 (GeneID 8569)	1	64.6	active
MKNK1 (GeneID 8569)	2	69	active
MKNK1 (GeneID 8569)	3	48.5	active
KAT2A (GeneID 2648)	1	58.4	active
KAT2A (GeneID 2648)	2	54.3	active
KAT2A (GeneID 2648)	3	72.2	active
UBE2V2 (GeneID 7336)	1	50.7	active
UBE2V2 (GeneID 7336)	2	56	active
UBE2V2 (GeneID 7336)	3	52.6	active
MLLT6 (GeneID 4302)	1	59.2	active
MLLT6 (GeneID 4302)	2	55.1	active
MLLT6 (GeneID 4302)	3	50.4	active
DYRK1B (GeneID 9149)	1	29	active
DYRK1B (GeneID 9149)	2	29.3	active
DYRK1B (GeneID 9149)	3	35.7	active
GEMIN4 (GeneID 50628)	1	33.3	active
GEMIN4 (GeneID 50628)	2	24.9	active
GEMIN4 (GeneID 50628)	3	38	active
MACROH2A1 (GeneID 9555)	1	38.6	active
MACROH2A1 (GeneID 9555)	2	41.9	active
MACROH2A1 (GeneID 9555)	3	45.5	active
TFRC (GeneID 7037)	1	83.6	inactive
TFRC (GeneID 7037)	2	63.2	active
TFRC (GeneID 7037)	3	66.5	active
MARVELD3 (GeneID 91862)	1	69.7	active
MARVELD3 (GeneID 91862)	2	53.2	active
MARVELD3 (GeneID 91862)	3	57.6	active
BHLHE40 (GeneID 8553)	1	38.7	active
BHLHE40 (GeneID 8553)	2	44	active
BHLHE40 (GeneID 8553)	3	46.9	active
SGK3 (GeneID 23678)	1	54.4	active
SGK3 (GeneID 23678)	2	49.2	active
SGK3 (GeneID 23678)	3	48.2	active
H4C8 (GeneID 8365)	1	40	active
H4C8 (GeneID 8365)	2	51.7	active
H4C8 (GeneID 8365)	3	64.8	active
SETDB1 (GeneID 9869)	1	43.1	active
SETDB1 (GeneID 9869)	2	47.3	active
SETDB1 (GeneID 9869)	3	43.5	active
NOTCH3 (GeneID 4854)	1	55.4	active
NOTCH3 (GeneID 4854)	2	62.5	active
NOTCH3 (GeneID 4854)	3	61.1	active
SPTB (GeneID 6710)	1	43.6	active
SPTB (GeneID 6710)	2	53.2	active
SPTB (GeneID 6710)	3	60	active
